Data as given in PubChem BioAssay AID743454 (Peter MacCallum Cancer Centre, 2014)

Screen: 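Knock-downs lowering viability or raising caspase 3/7 activity in vorinostat-treated resistant cells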 (primary screen)
Cell system: human HCT116-VR colon cancer cells, selected for vorinostat resistance
Reagent: siRNA pool against human genes, 40 nM siRNA pool
Duration: vorinostat for 24 h, read-out about 72 h after transfection
Challenge: vorinostat at 2.5 µM final
Measured: 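Cell viability by CellTiter-Fluor and caspase 3/7 activity by luminescence, each scaled to mock wells per plate, duplicates averaged, then robust z-scored over all plates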
Reading the numbers: viability robust z-score: higher = more viable cells than screen typical; caspase robust z-score: higher = more caspase 3/7 activity than screen typical
Call rule: 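a knock-down is a hit when classed RV1 or RV2 for lowered viability, or CA1 or CA2 for caspase activation; those lethal without drug were dropped; hits were retested singly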
This is an unselected part of about 18,000 deposited reagents. In the full data, 450 (2.5%) are marked active. 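Single biological run; no consistent viability z cut-off exists, so the class columns, not z-scores, define the calls.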 Entries without a mark were called inactive. Reagents against one gene are numbered here.

gene	reagent	viability hit class	caspase hit class	viability robust z-score	caspase robust z-score
TMEM67	1	no change	no change	1.38	-0.34
PSMA1	1	no change	no change	-3.86	1.68
GPRIN2	1	no change	no change	-0.1	0.66
GNB2	1	no change	no change	0.84	-0.07
PAM	1	no change	no change	1.38	0.32
MAPK8IP1	1	no change	no change	0.18	-0.04
PRKAR1A	1	no change	no change	0.4	0.08
LRRC26	1	no change	no change	-0.56	0.12
FSD1L	1	no change	no change	-0.9	-0.42
METTL25B	1	no change	no change	-0.13	-0.89
AFF3	1	no change	no change	0.96	-0.4
MLXIPL	1	no change	no change	0	-1.04
MUS81	1	no change	no change	0.53	0.1
DNAH11	1	no change	no change	0.29	-1.11
OR13C4	1	no change	no change	1	-0.24
FGA	1	no change	no change	-2.01	-0.72
COX5A	1	no change	no change	-0.4	-0.66
ST8SIA5	1	no change	no change	0.2	-0.3
ASH2L	1	no change (active)	CA1 (caspase activation)	-1.15	7.12
RSRC2	1	no change	no change	0.74	0.66
TTLL6	1	no change	no change	0.28	-0.86
ANXA3	1	no change	no change	1.19	-0.36
NEBL	1	no change	no change	2.11	1.02
NEBL	2	no change	no change	-1.08	0.12
OR5K1	1	no change	no change	-0.33	2.51
ADRA2A	1	no change	no change	0	0.32
DGKQ	1	no change	no change	-0.7	-0.88
CSF3R	1	no change	no change	-0.66	0.67
GRID2	1	no change	no change	0.43	-0.06
CYC1	1	no change	no change	1.23	0.22
RALY	1	no change	no change	1.58	0.68
TOGARAM1	1	no change	no change	1.35	-0.62
ZNF197	1	no change	no change	-0.74	0.93
SCP2D1	1	no change	no change	0.63	0.66
CR1	1	no change	no change	1.47	-0.22
RMP64	1	no change	no change	-1.08	1.36
TUBA1B	1	no change	no change	-3.21	0.52
KAT6B	1	no change	no change	-0.68	0.08
AMDHD1	1	no change	no change	-0.46	-0.69

Reformatted: entries from further up
ANXA3 → viability hit class = no change; caspase hit class = no change; viability robust z-score = 1.19; caspase robust z-score = -0.36
NEBL #1 → viability hit class = no change; caspase hit class = no change; viability robust z-score = 2.11; caspase robust z-score = 1.02
NEBL #2 → viability hit class = no change; caspase hit class = no change; viability robust z-score = -1.08; caspase robust z-score = 0.12
OR5K1 → viability hit class = no change; caspase hit class = no change; viability robust z-score = -0.33; caspase robust z-score = 2.51
ADRA2A → viability hit class = no change; caspase hit class = no change; viability robust z-score = 0; caspase robust z-score = 0.32
